24 compounds from PubChem BioAssay AID266 (DTP/NCI, 2004) can be followed below.

Each structure is given as a SMILES string. The list does not hold the whole screen: it gathers tests that were run many times, whatever their T/C, doses with no T/C, and many T/C values between a quarter and a half above the control. Further doses and runs are listed elsewhere. T/C is the treated group as % of the vehicle group. Schedule codes are those of the source, read here as Q, the interval in days (D) or hours (H), X, the number of doses. Some T/C values are followed by the survivors on the day toxicity was checked, most often the fifth; where none is given, no animal had died by that day. Some doses have a count of surviving animals in place of a T/C: the source files T/C as zero there, which appears to mark a toxic dose or a test without result, not a measured value. Counts of survivors are from the toxicity check (mostly the fifth day) where no day follows; animals may have died later. Starred links: 1 amine or outer side, 2 acyl side, 3 side chain; linkers in the order of their positions; H or OH if unused. Positions of bridges follow the written chain, without caps; N, C: chain ends. Non-standard residues stand in square brackets, D forms with d. Residues, ends and D or L forms follow the SMILES beside them. Chains are numbered I, II in the order given. Actinocin(9to1) = Cc1c2oc3c(C)ccc(C(=O)[*:1])c3nc-2c(C(=O)[*:2])c(N)c1=O; aThr = C[C@H](O)[C@H](N)C(=O)O; NMeV = CN[C@H](C(=O)O)C(C)C; Sar = CNCC(=O)O

This test has as its system Nude mice, LX-1 lung xenograft intrarenal, tumor weight T/C. The test is described as follows: NCI In Vivo Anticancer Drug Screen. Data for tumor model Human Lung LX-1 Xenograft (intrarenal inoculation) in NU/NU BALB/C (nude) mice. Conditions: T/C endpoint: mean tumor weight change, higher T/C = larger tumour; for T/C: evaluated on day 11. As for the experimental part:
The antitumor activity of compounds was measured in mice bearing transplantable tumors. Survival or tumor size were measured and the results are expressed as the measurement made in the treated group (T) divided by the measurement made in the vehicle treated control group (C). The tumor model used in this assay is Human Lung LX-1 Xenograft (intrarenal inoculation) in NU/NU BALB/C (nude) mice
(In xenograft studies the graft and the host belong to different species.)

The mark [1] stands for this setting: dose: 100.0 mg/kg/injection, schedule: Q01DX010 (sc), vehicle: saline.
Setting [2] is: dose: 200.0 mg/kg/injection, schedule: Q01DX010 (sc), vehicle: saline.
Where [3] appears, read: dose: 1200.0 mg/kg/injection, schedule: Q04DX003 (sc), vehicle: Klucel (hydroxypropylcellulose) (HPC).

In the case of `CCOC(=O)c1c[nH]c2oc(/C=N/N3CC(CN4CCOCC4)OC3=O)cc2c1=O` (stereo unspecified), the T/C under setting [1] was 132 % of control. In addition, the survivor count (dose: 400.0 mg/kg/injection, schedule: Q01DX010 (sc), vehicle: saline) is given as 0 of 3 on day 11. For the compound `CS(C)=O`, under “dose: 1500.0 mg/kg/injection, schedule: Q01DX010 (sc), vehicle: saline”, the T/C is 127 % of control. Turning to `CC1CN1C(=O)NCCCCCCNC(=O)N1CC1C` (stereo unspecified), the survivor count (dose: 60.0 mg/kg/injection, schedule: Q04DX003 (sc), vehicle: Klucel (hydroxypropylcellulose) (HPC)) is listed as 0 of 6 on day 11; the survivor count (dose: 80.0 mg/kg/injection, schedule: Q04DX003 (sc), vehicle: Klucel (hydroxypropylcellulose) (HPC)) is 0 of 6 on day 11; the survivor count (dose: 120.0 mg/kg/injection, schedule: Q04DX003 (sc), vehicle: Klucel (hydroxypropylcellulose) (HPC)) is recorded as 0 of 6 on day 11; the survivor count (dose: 160.0 mg/kg/injection, schedule: Q04DX003 (sc), vehicle: Klucel (hydroxypropylcellulose) (HPC)) was 0 of 6 on day 11. `Cc1c2oc3c(C)ccc(C(=O)N[C@@H]4C(=O)N[C@H](C(C)C)C(=O)N5CCC[C@H]5C(=O)N(C)CC(=O)N(C)[C@@H](C(C)C)C(=O)O[C@H]4C)c3nc-2c(C(=O)N[C@@H]2C(=O)N[C@H](C(C)C)C(=O)N3CCC[C@H]3C(=O)N(C)CC(=O)N(C)[C@@H](C(C)C)C(=O)O[C@H]2C)c(N)c1=O` (I: [aThr][dV]P[Sar][NMeV] / II: [aThr][dV]P[Sar][NMeV]; ester I:1-I:C, II:1-II:C; linker I:N-II:N via Actinocin(9to1)): under “dose: 400.0 micrograms/kg/injection, schedule: Q01DX010 (sc), vehicle: saline”, the survivor count was 0 of 3 on day 11. As for `CC[C@H]1CN2CCc3cc(OC)c(OC)cc3[C@@H]2C[C@@H]1C[C@H]1NCCc2cc(OC)c(OC)cc21`, the survivor count is reported as 0 of 3 on day 11 (dose: 8.0 mg/kg/injection, schedule: Q01DX010 (sc), vehicle: saline); 0 of 3 on day 11 (dose: 16.0 mg/kg/injection, schedule: Q01DX010 (sc), vehicle: saline); 0 of 3 on day 11 (dose: 32.0 mg/kg/injection, schedule: Q01DX010 (sc), vehicle: saline). On to `CCOC1=Cc2c(oc3c(C(C)(C)C)cc(OCC)cc23)OC(C(C)(C)C)=C1`, for which the T/C (dose: 75.0 mg/kg/injection, schedule: Q04DX003 (sc), vehicle: saline with Tween-80) was 142 % of control. For the compound `C1CN1c1nc(N2CC2)nc(N2CC2)n1`, the survivor count was 0 of 3 on day 11 (dose: 1.0 mg/kg/injection, schedule: Q01DX010 (sc), vehicle: saline) and 0 of 3 on day 11 (dose: 2.0 mg/kg/injection, schedule: Q01DX010 (sc), vehicle: saline). Regarding `CC(=O)NC(CCc1ccc(Cl)c(Cl)c1)c1cccc(O)c(=O)c1` (stereo unspecified), the survivor count runs as follows: (dose: 400.0 mg/kg/injection, schedule: Q04DX003 (ip), vehicle: Klucel (hydroxypropylcellulose) (HPC)) 0 of 6 on day 11; (dose: 800.0 mg/kg/injection, schedule: Q04DX003 (ip), vehicle: Klucel (hydroxypropylcellulose) (HPC)) 0 of 6 on day 11. For `O=NN(CCCl)C(=O)NCCCl`, the survivor count is recorded as 0 of 3 on day 11 (dose: 32.0 mg/kg/injection, schedule: Q01DX010 (ip), vehicle: saline); 0 of 3 on day 11 (dose: 106.65 mg/kg/injection, schedule: Q04DX003 (ip), vehicle: saline); 0 of 3 on day 11 (dose: 106.66 mg/kg/injection, schedule: Q04DX003 (ip), vehicle: saline). Turning to `CC1(CO)C(O)CCC2(C)C1CCC1CC3CC12CCC3(O)CO` (stereo unspecified), the T/C (dose: 50.0 mg/kg/injection, schedule: Q01DX010 (sc), vehicle: saline with Tween-80) was 146 % of control. Also, the survivor count (dose: 400.0 mg/kg/injection, schedule: Q01DX010 (sc), vehicle: saline with Tween-80) is 0 of 3 on day 11. Turning to `CN(CO)c1nc(N(C)CO)nc(N(C)CO)n1`, where the note is “dose: 12.5 mg/kg/injection, schedule: Q01DX010 (sc), vehicle: saline”, the T/C was 131 % of control [2 of 2 alive on day 11]. The survivor count under setting [2] was 0 of 2 on day 11. Regarding `OCC(O)C(O)C(O)C(O)CO` (stereo unspecified), the T/C is, setting by setting: (dose: 150.0 mg/kg/injection, schedule: Q04DX003 (ip), vehicle: saline) 139 % of control; (dose: 300.0 mg/kg/injection, schedule: Q04DX003 (ip), vehicle: saline) 134 % of control. As to `CN(C)/N=N/c1nc[nH]c1C(N)=O`, the survivor count by setting is: (dose: 400.0 mg/kg/injection, schedule: Q01DX010 (sc), vehicle: Klucel (hydroxypropylcellulose) (HPC)) 1 of 3 on day 11; (dose: 800.0 mg/kg/injection, schedule: Q01DX010 (sc), vehicle: Klucel (hydroxypropylcellulose) (HPC)) 0 of 3 on day 11.

On to `CC1CCC(n2cnc3c(Cl)ncnc32)O1` (stereo unspecified), for which the T/C (dose: 150.0 mg/kg/injection, schedule: Q04DX003 (sc), vehicle: Klucel (hydroxypropylcellulose) (HPC)) is 138 % of control. Moreover, the survivor count reads like this: (dose: 600.0 mg/kg/injection, schedule: Q04DX003 (sc), vehicle: Klucel (hydroxypropylcellulose) (HPC)) 2 of 6 on day 11; under setting [3], 0 of 6 on day 11. As for `COc1ccc(C(=O)/C(Br)=C/C(=O)O)cc1`, the survivor count is on record as 0 of 2 on day 11 under setting [1] and 0 of 3 on day 11 under setting [2]. As for `CSc1cc(=O)n2c3ccccc3c3ccnc1c32`, the survivor count (dose: 640.0 mg/kg/injection, schedule: Q04DX003 (sc), vehicle: saline with Tween-80) is 3 of 5 on day 11. `C/C(=C\c1ccccc1)[N+](=O)[O-]`: the T/C (dose: 25.0 mg/kg/injection, schedule: Q01DX010 (sc), vehicle: Klucel (hydroxypropylcellulose) (HPC)) is 131 % of control. As for `COc1ccc2c(ccc3oc([N+](=O)[O-])cc32)c1`, the T/C under setting [3] is 127 % of control.

Take `CCS/C(SC)=C(/c1ccccc1)[P+](c1ccccc1)(c1ccccc1)c1ccccc1`: for the setting “dose: 75.0 mg/kg/injection, schedule: Q04DX003 (sc), vehicle: Klucel (hydroxypropylcellulose) (HPC)”, the survivor count is recorded as 1 of 6 on day 11. On to `C=COC(=O)C(Cc1ccccc1)NC(=O)OCc1ccccc1` (stereo unspecified), for which the survivor count (dose: 2400.0 mg/kg/injection, schedule: Q04DX003 (sc), vehicle: saline with Tween-80) was 0 of 6 on day 11. `CCC1=C[C@H]2CN(CCc3c([nH]c4ccccc34)[C@@](C(=O)OC)(c3cc4c(cc3OC)N(C)[C@H]3[C@@](O)(C(=O)NC)[C@H](OC(C)=O)[C@]5(CC)C=CCN6CC[C@]43[C@@H]65)C2)C1`: the survivor count was 2 of 6 on day 11 (dose: 2.0 mg/kg/injection, schedule: Q04DX003 (sc), vehicle: water); 0 of 6 on day 11 (dose: 4.0 mg/kg/injection, schedule: Q04DX003 (sc), vehicle: water); 0 of 6 on day 11 (dose: 8.0 mg/kg/injection, schedule: Q04DX003 (sc), vehicle: water). Turning to `[Cl][Hg][Cl]`, the survivor count (dose: 20.0 mg/kg/injection, schedule: Q04DX003 (ip), vehicle: saline) is reported as 0 of 6 on day 11. As to `CCNC(C)(C)C(SSS)c1ccco1` (stereo unspecified), under setting [3], the survivor count is listed as 0 of 6 on day 11.

With `CC(O)CCC(=O)c1ccoc1` (stereo unspecified), the T/C runs as follows: (dose: 3.75 mg/kg/injection, schedule: Q01DX010 (ip), vehicle: saline) 127 % of control; (dose: 15.0 mg/kg/injection, schedule: Q01DX010 (ip), vehicle: saline) 147 % of control; (dose: 30.0 mg/kg/injection, schedule: Q01DX010 (ip), vehicle: saline) 140 % of control. The survivor count (dose: 60.0 mg/kg/injection, schedule: Q01DX010 (ip), vehicle: saline) is on record as 0 of 6 on day 11.
